## Assay results

Data taken from PubChem BioAssay AID1224904, deposited by Broad Institute (2016).

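Selective DUX4 reporter inhibition in doxycycline-induced 293T-iDUX4 cells, scored as Gaussia percent activity minus Italica percent activity, after a 24-hour treatment.
The test concentration is not given here.
Percent difference between the Gaussia and Italica channels; more negative values mean more selective suppression of the DUX4 reporter, and higher values mean less activity.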

Values are in %.
How 0% and 100% were set is not given here.
Common to all entries: measured here: selective DUX4 reporter inhibition.
Part of the compounds only, not a random draw; the main read-out is not listed here.

structure,Gaussia minus Italica difference (%)
CCN1[C@@H]2Cn3c(ccc(C4=CCCC4)c3=O)[C@H]1[C@@H](C(=O)N1CCc3ccccc3C1)[C@@H]2CO,-20.33
CN1C(=O)c2cc(NS(=O)(=O)c3ccc(Cl)cc3)ccc2OC[C@@H]2O[C@H](CC(=O)N3CCc4ccccc4C3)CC[C@@H]21,0.1787
COc1ccccc1-c1ccc([C@@H]2[C@H](CO)N(CC3CC3)C23CN(S(C)(=O)=O)C3)cc1,-11.17
COc1ccc2c3c([nH]c2c1)[C@@H](CO)N(C(=O)Nc1ccc(F)cc1)CC31CCN(S(=O)(=O)c2ccccc2)CC1,13.22
CO[C@H]1CN(C)C(=O)c2cc(NS(=O)(=O)c3cccc(F)c3)ccc2OC[C@H](C)N(Cc2cc(F)ccc2F)C[C@H]1C,-6.572
COCC(=O)Nc1ccc2c(c1)[C@@H]1C[C@H](CC(=O)NCc3ccc(-c4ccccc4)cc3)O[C@@H](CO)[C@@H]1O2,-1.182
O=C(c1ccccc1)N1CC2(C1)[C@H](c1ccccc1)[C@H](CO)N2Cc1cc(F)ccc1F,-3.141
O=C(NC1CCCCC1)N1CC2(C1)[C@@H](c1ccccc1)[C@@H](CO)N2CC1CCCC1,-9.179
O=C(C[C@@H]1CC[C@@H]2[C@H](COC[C@@H](O)CN2CCc2ccccc2)O1)N1CCC(Cc2ccccc2)CC1,-8.43
O=C(CC1CC1)N1CC(=O)N2[C@H](CO)[C@@H](c3ccc(C#Cc4cccc(F)c4)cc3)[C@H]2C1,-4.847
COc1ccc2c3c(n(C)c2c1)[C@@H](CO)N(S(=O)(=O)c1ccc(C)cc1)CC31CN(C(=O)c2ccccn2)C1,-3.576
O=C(c1ccc2c(c1)OCO2)N1CCCCN2[C@H](CO)[C@H](c3ccc(-c4ccccc4)cc3)[C@@H]2C1,-12.23
Cc1ccccc1S(=O)(=O)N1CC[C@@H]2[C@H](CO)Nc3ccc(C#Cc4ccccc4)cc3[C@@H]21,2.594
COc1ccc2c3c(n(C)c2c1)[C@H](CO)N(S(=O)(=O)c1ccc(C)cc1)CC31CN(S(=O)(=O)c2ccc(C)cc2)C1,-1.585
O=C(c1cccc(F)c1)N1CCCCN2[C@H](C1)[C@H](c1ccc(-c3ccccc3)cc1)[C@@H]2CO,-11.49
CCC(=O)N1CC2(CN(Cc3ccccc3Cl)C2)c2c([nH]c3cc(OC)ccc23)[C@H]1CO,-3.108
COc1cccc(-c2ccc([C@@H]3[C@@H](CO)N4CCCCN(C(=O)c5ccc6c(c5)OCO6)C[C@H]34)cc2)c1,-9.51
Cc1ccccc1S(=O)(=O)N1CC[C@@H]2[C@@H](CO)N(C)c3ccc(-c4ccc(F)cc4)cc3[C@@H]21,0.5944
COc1cccc(S(=O)(=O)N2CCCCN3[C@@H](CO)[C@H](c4ccc(C#CC5CC5)cc4)[C@@H]3C2)c1,-15.43
C/C=C/c1ccc2c(c1)[C@H]1[C@H](CCN1S(=O)(=O)c1ccccc1F)[C@H](CO)N2,-10.76
COc1ccc2c3c(n(C)c2c1)[C@@H](CO)N(C(=O)C1CC1)CC31CCN(Cc2cccc(F)c2)CC1,19.43
COc1ccc(S(=O)(=O)N2CC[C@@H]3[C@H](CO)Nc4ccc(C#Cc5cccnc5)cc4[C@@H]32)cc1,-1.667
COc1ccccc1CN(C)C[C@H]1OCc2ccccc2-c2ccccc2C(=O)N([C@@H](C)CO)C[C@H]1C,-10.74
CC(C)C#Cc1ccc([C@@H]2[C@H](CO)N3C(=O)CN(C(=O)NC4CCCC4)C[C@@H]23)cc1,-13.83
COc1ccccc1CNC(=O)C[C@H]1C[C@@H]2c3cc(NC(=O)Nc4ccc(C(F)(F)F)cc4)ccc3O[C@@H]2[C@H](CO)O1,9.581
C[C@H](CO)N1C[C@H](C)[C@H](CN(C)C(=O)Nc2cccc(F)c2)OCc2ccccc2-c2c(n(C)c3ccccc23)C1=O,8.115
C[C@H](CO)N1C[C@H](C)[C@H](CN(C)C(=O)Nc2ccc3c(c2)OCO3)OCc2ccccc2-c2c(n(C)c3ccccc23)C1=O,8.965
O=C(C1CCC1)N1CC[C@@H]2[C@H]1c1cc(C#Cc3cccc(F)c3)ccc1N[C@@H]2CO,-18.73
CCC(=O)N1[C@H](CO)[C@H](c2ccc(-c3cccnc3)cc2)[C@@H]1CN(C)C(C)=O,-10.09
COc1cccc(S(=O)(=O)Nc2ccc3c(c2)[C@H]2C[C@H](CC(=O)NC4CCCCC4)O[C@H](CO)[C@H]2O3)c1,-6.436
CO[C@H]1CN(C)C(=O)c2cc(NC(=O)c3nc4ccccc4s3)ccc2OC[C@@H](C)NC[C@@H]1C,-10.45
O=C(C[C@@H]1CC[C@H]2[C@@H](COC[C@@H](O)CN2C(=O)c2ccccc2F)O1)NCc1ccc(F)cc1,-8.003
O=C(C1CCCCC1)N1CC2(C1)[C@@H](c1ccccc1)[C@@H](CO)N2CC1CCCC1,-3.349
CCCC#Cc1ccc([C@@H]2[C@H](CO)N3CCCCN(C(=O)c4ccc5c(c4)OCO5)C[C@@H]23)cc1,-4.733
COc1ccccc1S(=O)(=O)N1CC[C@@H]2[C@@H](CO)Nc3ccc(-c4ccccc4)cc3[C@@H]21,8.864
O=C(C1CC1)N1CC2(C1)[C@@H](c1ccccc1)[C@@H](CO)N2Cc1ccc(Cl)cc1,-8.183
N#C[C@@H]1[C@H](c2ccc(C#Cc3ccc(F)cc3)cc2)[C@@H](CO)N1C(=O)Nc1ccc(F)cc1,1.692
COc1ccc2c3c([nH]c2c1)[C@@H](CO)N(C(=O)Nc1cccc(F)c1)CC31CN(S(=O)(=O)c2ccccc2)C1,0.8537
Cc1ccc(-c2ccc([C@H]3[C@@H](CO)N4CCCCN(C(=O)Nc5ccccc5)C[C@H]34)cc2)cc1,11.73
O=C(C[C@H]1C[C@H]2c3cc(NC(=O)C4CCOCC4)ccc3O[C@H]2[C@H](CO)O1)NCc1ccc(Oc2ccccc2)cc1,-12.06
OC[C@@H]1[C@@H](c2ccccc2)C2(CN(CC3CC3)C2)N1Cc1ccc(F)cc1,-21.59
C[C@H](O)C#Cc1ccc([C@H]2[C@H]3CN(C(=O)Nc4ccccc4)CCCCN3[C@H]2CO)cc1,16.93
C/C=C/c1ccc([C@H]2[C@H]3CN(S(=O)(=O)c4cccc(C)c4)CCCCN3[C@H]2CO)cc1,-15.73
C[C@@H](NC(=O)C[C@H]1C[C@H]2c3cc(NC(=O)c4cccnc4)ccc3O[C@H]2[C@H](CO)O1)c1ccccc1,-17.56
COc1ccc(C#Cc2ccc([C@@H]3[C@@H](CO)N4CCCCN(S(=O)(=O)c5cn(C)cn5)C[C@H]34)cc2)cc1,-13.31

The first 5 entries again:

| structure | Gaussia minus Italica difference (%) |
|---|---|
| `CCN1[C@@H]2Cn3c(ccc(C4=CCCC4)c3=O)[C@H]1[C@@H](C(=O)N1CCc3ccccc3C1)[C@@H]2CO` | -20.33 |
| `CN1C(=O)c2cc(NS(=O)(=O)c3ccc(Cl)cc3)ccc2OC[C@@H]2O[C@H](CC(=O)N3CCc4ccccc4C3)CC[C@@H]21` | 0.1787 |
| `COc1ccccc1-c1ccc([C@@H]2[C@H](CO)N(CC3CC3)C23CN(S(C)(=O)=O)C3)cc1` | -11.17 |
| `COc1ccc2c3c([nH]c2c1)[C@@H](CO)N(C(=O)Nc1ccc(F)cc1)CC31CCN(S(=O)(=O)c2ccccc2)CC1` | 13.22 |
| `CO[C@H]1CN(C)C(=O)c2cc(NS(=O)(=O)c3cccc(F)c3)ccc2OC[C@H](C)N(Cc2cc(F)ccc2F)C[C@H]1C` | -6.572 |